Article PMC10941186, “Real-Time Biosynthetic Reaction Monitoring Informs the Mechanism of Action of Antibiotics” (Journal of the American Chemical Society, 2024)
No constants are given. Whether binding was seen depends on the method and setting.

Tests used:
[1] = biological target: PgpB, Escherichia coli (PgpB^Ec) (Escherichia coli) (UniProt P0A924); test: native MS; PgpB^Ec released from LDAO micelles, 200 mM ammonium acetate pH 8.0, 0.05% LDAO, activation 100-200 V; also after less stringent purification (apo and cardiolipin-bound monomer); both purified
[2] = biological target: PgpB, Escherichia coli (PgpB^Ec) (Escherichia coli) (UniProt P0A924); test: native MS; PgpB^Ec equilibrated with fourfold molar excess of exogenous POPE; both purified

B1: PgpB, Escherichia coli (PgpB^Ec) (enzyme, UniProt P0A924 2-254)
chain: RSIARRTAVGAALLLVMPVAVWISGWRWQPGEQSWLLKAAFWVTETVTQPWGVITHLILFGWFLWCLRFRIKAAFVLFAILAAAILVGQGVKSWIKDKVQEPRPFVIWLEKTHHIPVDEFYTLKRAERGNLVKEQLAEEKNIPQYLRSHWQKETGFAFPSGHTMFAASWALLAVGLLWPRRRTLTIAILLVWATGVMGSRLLLGMHWPRDLVVATLISWALVAVATWLAQRICGPLTPPAEENREIAQREQES
Q: Which results are given for B1?
A: binding [1]: no binding; binding [2]: no binding
